Results are given in words; binding and its absence hold for the method and conditions named. In cells and extracts the contact can be indirect. Some binding calls cover weakened binding; strength is not graded here.

Amino acid sequences for entries named in this document (tags omitted).
UniProt Q9Z204: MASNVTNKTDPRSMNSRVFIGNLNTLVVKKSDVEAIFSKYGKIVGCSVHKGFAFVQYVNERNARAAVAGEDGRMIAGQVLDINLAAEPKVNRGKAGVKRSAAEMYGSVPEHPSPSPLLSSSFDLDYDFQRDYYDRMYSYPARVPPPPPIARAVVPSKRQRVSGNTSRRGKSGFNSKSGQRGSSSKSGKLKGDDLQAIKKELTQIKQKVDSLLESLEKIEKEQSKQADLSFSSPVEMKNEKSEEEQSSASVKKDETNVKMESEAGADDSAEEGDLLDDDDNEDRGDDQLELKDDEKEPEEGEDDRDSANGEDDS

This assay addresses hnRNPC (mouse (endogenous in P8 testes)) (UniProt Q9Z204). In words: co-IP; P8 WT mouse testis lysate, treated with or without RNase A (1 ug/mL, 30 min); Protein G magnetic beads with anti-hnRNPC antibody or rabbit IgG, overnight at 4 °C; Western blot of the immunoprecipitates.

B1: BUD31 (protein, UniProt Q6PGH1 1-144)
chain: MPKVKRSRKAPPDGWELIEPTLDELDQKMREAETEPHEGKRKVESLWPIFRIHHQKTRYIFDLFYKRKAISRELYEYCIKEGYADKNLIAKWKKQGYENLCCLRCIQTRDTNFGTNCICRVPKSKLEVGRIIECTHCGCRGCSG
Consider B1, for which the binding result is listed as “binds”.

B2: SF3A1 (protein, UniProt Q8K4Z5 1-791)
chain: MQAGPVQAVPPPPPVATESKQPIEEEASSKEDPTPSKPVVGIIYPPPEVRNIVDKTASFVARNGPEFEARIRQNEINNPKFNFLNPNDPYHAYYRHKVSEFKEGKAQEPSAAIPKVMQQQQQATQQQLPQKVQAQVIQETIVPKEPPPEFEFIADPPSISAFDLDVVKLTAQFVARNGRQFLTQLMQKEQRNYQFDFLRPQHSLFNYFTKLVEQYTKILIPPKGLFSKLKKEAENPREVLDQVCYRVEWAKFQERERKKEEEEKEKERVAYAQIDWHDFVVVETVDFQPNEQGNFPPPTTPEELGARILIQERYEKFGESEEVEMEVESDEEDQEKAEETPSQLDQDTQVQDMDEGSDDEEEGQKVPPPPETPMPPPLPPTPDQVIVRKDYDPKASKPLPPAPAPDEYLVSPITGEKIPASKMQEHMRIGLLDPRWLEQRDRSIREKQSDDEVYAPGLDIESSLKQLAERRTDIFGVEETAIGKKIGEEEIQKPEEKVTWDGHSGSMARTQQAAQANITLQEQIEAIHKAKGLVPEDDTKEKIGPSKPNEIPQQPPPPSSATNIPSSAPPITSVPRPPAMPPPVRTTVVSAVPVMPRPPMASVVRLPPGSVIAPMPPIIHAPRINVVPMPPAAPPIMAPRPPPMIVPTAFVPAPPVAPVPAPAPMPPVHPPPPMEDEPPSKKLKTEDSLMPEEEFLRRNKGPVSIKVQVPNMQDKTEWKLNGQGLVFTLPLTDQVSVIKVKIHEATGMPAGKQKLQYEGIFIKDSNSLAYYNMASGAVIHLALKERGGRKK
For the molecule B2, the binding result is given as “binds”.

B3: SF3B3 (protein, UniProt Q921M3 1-1217)
chain: MFLYNLTLQRATGISFAIHGNFSGTKQQEIVVSRGKILELLRPDPNTGKVHTLLTVEVFGVIRSLMAFRLTGGTKDYIVVGSDSGRIVILEYQPSKNMFEKIHQETFGKSGCRRIVPGQFLAVDPKGRAVMISAIEKQKLVYILNRDAAARLTISSPLEAHKANTLVYHVVGVDVGFENPMFACLEMDYEEADNDPTGEAAANTQQTLTFYELDLGLNHVVRKYSEPLEEHGNFLITVPGGSDGPSGVLICSENYITYKNFGDQPDIRCPIPRRRNDLDDPERGMIFVCSATHKTKSMFFFLAQTEQGDIFKITLETDEDMVTEIRLKYFDTVPVAAAMCVLKTGFLFVASEFGNHYLYQIAHLGDDDEEPEFSSAMPLEEGDTFFFQPRPLKNLVLVDELDSLSPILFCQIADLANEDTPQLYVACGRGPRSSLRVLRHGLEVSEMAVSELPGNPNAVWTVRRHIEDEFDAYIIVSFVNATLVLSIGETVEEVTDSGFLGTTPTLSCSLLGDDALVQVYPDGIRHIRADKRVNEWKTPGKKTIVKCAVNQRQVVIALTGGELVYFEMDPSGQLNEYTERKEMSADVVCMSLANVPPGEQRSRFLAVGLVDNTVRIISLDPSDCLQPLSMQALPAQPESLCIVEMGGTEKQDELGERGSIGFLYLNIGLQNGVLLRTVLDPVTGDLSDTRTRYLGSRPVKLFRVRMQGQEAVLAMSSRSWLSYSYQSRFHLTPLSYETLEFASGFASEQCPEGIVAISTNTLRILALEKLGAVFNQVAFPLQYTPRKFVIHPESNNLIIIETDHNAYTEATKAQRKQQMAEEMVEAAGEDERELAAEMAAAFLNENLPESIFGAPKAGNGQWASVIRVMNPIQGNTLDLVQLEQNEAAFSVAVCRFSNTGEDWYVLVGVAKDLILSPRSVAGGFVYTYKLVNNGEKLEFLHKTPVEEVPAAIAPFQGRVLIGVGKLLRVYDLGKKKLLRKCENKHIANYISGIQTIGHRVIVSDVQESFIWVRYKRNENQLIIFADDTYPRWVTTASLLDYDTVAGADKFGNICVVRLPPNTNDEVDEDPTGNKALWDRGLLNGASQKAEVIMNYHVGETVLSLQKTTLIPGGSESLVYTTLSGGIGILVPFTSHEDHDFFQHVEMHLRSEHPPLCGRDHLSFRSYYFPVKNVIDGDLCEQFNSMEPNKQKNVSEELDRTPPEVSKKLEDIRTRYAF
For the molecule B3, the binding entry is given as “binds”.
